# From the supplement of paper PMC10032668
# The chains behind the UniProt entries cited, without tags or fusion partners.
# DPY30, Q9C005, UniProt Q9C005, whole entry: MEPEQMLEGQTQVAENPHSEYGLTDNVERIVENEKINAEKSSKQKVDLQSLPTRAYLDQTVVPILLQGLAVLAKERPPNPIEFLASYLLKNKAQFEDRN
# MCM2, P49736, UniProt P49736, whole entry: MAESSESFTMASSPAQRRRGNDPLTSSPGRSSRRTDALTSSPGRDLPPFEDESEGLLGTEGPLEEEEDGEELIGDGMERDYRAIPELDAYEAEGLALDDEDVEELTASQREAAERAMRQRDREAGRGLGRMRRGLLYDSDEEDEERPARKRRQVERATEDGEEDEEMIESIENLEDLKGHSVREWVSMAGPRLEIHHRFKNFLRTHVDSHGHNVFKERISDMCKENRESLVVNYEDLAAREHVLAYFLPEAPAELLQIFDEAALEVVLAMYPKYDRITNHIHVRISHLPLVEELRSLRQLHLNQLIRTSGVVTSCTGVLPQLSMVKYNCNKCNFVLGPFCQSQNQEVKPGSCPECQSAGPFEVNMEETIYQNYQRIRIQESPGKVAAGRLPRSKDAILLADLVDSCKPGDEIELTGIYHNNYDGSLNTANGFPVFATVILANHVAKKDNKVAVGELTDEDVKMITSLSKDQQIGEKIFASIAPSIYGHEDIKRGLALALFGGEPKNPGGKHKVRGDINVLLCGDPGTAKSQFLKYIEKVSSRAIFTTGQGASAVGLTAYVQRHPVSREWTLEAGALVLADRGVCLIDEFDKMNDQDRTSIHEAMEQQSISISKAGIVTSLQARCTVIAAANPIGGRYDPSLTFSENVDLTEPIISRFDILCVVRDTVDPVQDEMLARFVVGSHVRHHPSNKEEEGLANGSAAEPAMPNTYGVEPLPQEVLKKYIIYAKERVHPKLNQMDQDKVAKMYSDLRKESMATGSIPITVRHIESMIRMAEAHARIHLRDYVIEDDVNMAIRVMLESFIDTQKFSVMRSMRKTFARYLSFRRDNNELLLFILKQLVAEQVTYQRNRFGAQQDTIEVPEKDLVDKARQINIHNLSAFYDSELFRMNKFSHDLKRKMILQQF
# NUP153, P49790, UniProt P49790, whole entry: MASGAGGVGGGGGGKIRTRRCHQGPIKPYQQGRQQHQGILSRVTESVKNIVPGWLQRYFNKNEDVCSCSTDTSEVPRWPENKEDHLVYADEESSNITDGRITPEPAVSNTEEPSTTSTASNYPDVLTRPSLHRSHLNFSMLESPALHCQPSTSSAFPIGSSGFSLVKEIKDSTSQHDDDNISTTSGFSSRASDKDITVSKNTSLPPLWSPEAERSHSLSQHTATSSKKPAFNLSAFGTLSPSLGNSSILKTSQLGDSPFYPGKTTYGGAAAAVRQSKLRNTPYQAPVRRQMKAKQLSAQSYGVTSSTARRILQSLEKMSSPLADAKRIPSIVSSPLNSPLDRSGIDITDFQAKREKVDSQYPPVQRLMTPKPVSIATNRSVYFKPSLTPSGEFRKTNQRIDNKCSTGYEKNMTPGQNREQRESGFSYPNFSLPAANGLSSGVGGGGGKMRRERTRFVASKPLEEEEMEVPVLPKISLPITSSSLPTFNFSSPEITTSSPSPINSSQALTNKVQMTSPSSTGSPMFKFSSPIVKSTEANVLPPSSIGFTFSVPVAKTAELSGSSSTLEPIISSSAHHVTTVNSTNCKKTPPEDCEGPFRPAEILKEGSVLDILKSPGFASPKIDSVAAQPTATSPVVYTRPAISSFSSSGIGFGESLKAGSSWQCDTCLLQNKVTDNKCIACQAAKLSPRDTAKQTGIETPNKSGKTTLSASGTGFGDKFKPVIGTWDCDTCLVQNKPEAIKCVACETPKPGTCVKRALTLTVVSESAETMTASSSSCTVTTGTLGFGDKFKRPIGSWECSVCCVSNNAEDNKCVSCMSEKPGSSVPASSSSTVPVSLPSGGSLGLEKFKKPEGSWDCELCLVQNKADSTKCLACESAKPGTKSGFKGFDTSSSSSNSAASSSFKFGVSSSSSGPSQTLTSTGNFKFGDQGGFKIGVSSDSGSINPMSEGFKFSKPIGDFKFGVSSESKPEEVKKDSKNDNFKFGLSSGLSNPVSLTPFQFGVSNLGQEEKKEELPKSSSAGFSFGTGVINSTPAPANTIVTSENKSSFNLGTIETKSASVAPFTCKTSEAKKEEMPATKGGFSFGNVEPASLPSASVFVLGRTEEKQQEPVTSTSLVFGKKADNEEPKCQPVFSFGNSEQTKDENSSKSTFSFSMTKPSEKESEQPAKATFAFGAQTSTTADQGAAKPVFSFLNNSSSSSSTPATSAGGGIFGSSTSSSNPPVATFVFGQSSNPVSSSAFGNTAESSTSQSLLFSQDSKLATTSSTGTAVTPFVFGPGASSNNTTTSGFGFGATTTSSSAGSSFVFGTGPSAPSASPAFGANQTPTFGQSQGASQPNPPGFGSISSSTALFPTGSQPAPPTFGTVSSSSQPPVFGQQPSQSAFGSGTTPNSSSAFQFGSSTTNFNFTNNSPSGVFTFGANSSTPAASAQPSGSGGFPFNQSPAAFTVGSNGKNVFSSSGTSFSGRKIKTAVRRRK
# PABPC4, Q13310, UniProt Q13310, whole entry: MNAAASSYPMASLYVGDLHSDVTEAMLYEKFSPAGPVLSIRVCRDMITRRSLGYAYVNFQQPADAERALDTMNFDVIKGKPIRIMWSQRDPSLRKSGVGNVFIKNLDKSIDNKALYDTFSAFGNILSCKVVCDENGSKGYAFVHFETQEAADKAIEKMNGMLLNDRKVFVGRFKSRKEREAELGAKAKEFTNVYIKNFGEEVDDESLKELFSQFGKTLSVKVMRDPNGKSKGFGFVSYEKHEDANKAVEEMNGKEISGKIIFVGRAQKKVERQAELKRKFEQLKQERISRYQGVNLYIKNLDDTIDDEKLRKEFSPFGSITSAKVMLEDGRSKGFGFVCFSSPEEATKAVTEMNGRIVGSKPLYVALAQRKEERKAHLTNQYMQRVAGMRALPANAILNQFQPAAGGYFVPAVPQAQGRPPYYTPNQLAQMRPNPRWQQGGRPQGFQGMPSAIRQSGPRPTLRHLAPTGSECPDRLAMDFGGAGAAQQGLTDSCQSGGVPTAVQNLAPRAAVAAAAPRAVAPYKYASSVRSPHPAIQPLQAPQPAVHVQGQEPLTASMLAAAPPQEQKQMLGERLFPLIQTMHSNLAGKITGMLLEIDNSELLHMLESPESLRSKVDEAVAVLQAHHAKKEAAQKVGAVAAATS
# MPG, P29372, UniProt P29372, whole entry: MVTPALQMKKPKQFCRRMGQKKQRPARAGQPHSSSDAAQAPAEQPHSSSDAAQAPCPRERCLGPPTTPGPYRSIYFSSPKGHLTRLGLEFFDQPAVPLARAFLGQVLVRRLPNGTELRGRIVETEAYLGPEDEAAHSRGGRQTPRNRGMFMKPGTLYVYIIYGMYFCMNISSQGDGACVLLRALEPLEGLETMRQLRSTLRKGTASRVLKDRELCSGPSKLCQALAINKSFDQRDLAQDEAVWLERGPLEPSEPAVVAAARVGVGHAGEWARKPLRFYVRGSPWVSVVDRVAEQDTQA
# WDR82, Q6UXN9, UniProt Q6UXN9, whole entry: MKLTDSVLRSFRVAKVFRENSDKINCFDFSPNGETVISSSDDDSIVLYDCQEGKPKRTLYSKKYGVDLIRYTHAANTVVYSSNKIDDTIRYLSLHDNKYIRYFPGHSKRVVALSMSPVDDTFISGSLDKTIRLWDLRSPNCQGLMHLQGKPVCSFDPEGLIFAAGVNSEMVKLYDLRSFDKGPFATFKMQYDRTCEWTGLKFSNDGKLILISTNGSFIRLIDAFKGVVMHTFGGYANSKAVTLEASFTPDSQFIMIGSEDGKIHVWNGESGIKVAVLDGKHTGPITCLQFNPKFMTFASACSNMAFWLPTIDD
# RCC2, Q9P258, UniProt Q9P258, whole entry: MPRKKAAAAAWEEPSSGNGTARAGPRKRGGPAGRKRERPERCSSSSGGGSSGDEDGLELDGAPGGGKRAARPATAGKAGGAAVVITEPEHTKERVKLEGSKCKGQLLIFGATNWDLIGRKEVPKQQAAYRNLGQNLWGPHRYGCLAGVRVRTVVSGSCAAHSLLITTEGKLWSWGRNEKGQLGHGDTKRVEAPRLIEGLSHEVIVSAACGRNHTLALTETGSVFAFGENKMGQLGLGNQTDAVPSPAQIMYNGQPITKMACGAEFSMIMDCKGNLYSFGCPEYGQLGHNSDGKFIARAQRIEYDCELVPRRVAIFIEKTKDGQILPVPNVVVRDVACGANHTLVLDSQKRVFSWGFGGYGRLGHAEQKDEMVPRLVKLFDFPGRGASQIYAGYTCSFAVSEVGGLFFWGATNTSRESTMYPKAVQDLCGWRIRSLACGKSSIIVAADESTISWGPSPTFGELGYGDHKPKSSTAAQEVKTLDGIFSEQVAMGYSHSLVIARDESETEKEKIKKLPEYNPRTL
# IDH1, O75874, UniProt O75874, whole entry: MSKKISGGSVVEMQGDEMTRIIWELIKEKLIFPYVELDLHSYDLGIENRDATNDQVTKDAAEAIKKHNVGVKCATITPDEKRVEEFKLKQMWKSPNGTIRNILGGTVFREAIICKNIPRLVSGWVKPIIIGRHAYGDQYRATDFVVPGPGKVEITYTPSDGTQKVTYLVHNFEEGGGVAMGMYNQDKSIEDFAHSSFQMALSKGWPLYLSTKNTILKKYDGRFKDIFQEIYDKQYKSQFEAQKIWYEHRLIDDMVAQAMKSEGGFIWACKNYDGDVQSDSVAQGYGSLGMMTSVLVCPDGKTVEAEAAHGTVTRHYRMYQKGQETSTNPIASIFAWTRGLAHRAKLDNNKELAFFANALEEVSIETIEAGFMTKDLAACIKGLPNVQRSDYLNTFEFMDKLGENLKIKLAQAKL
# POLR1C, O15160, UniProt O15160, whole entry: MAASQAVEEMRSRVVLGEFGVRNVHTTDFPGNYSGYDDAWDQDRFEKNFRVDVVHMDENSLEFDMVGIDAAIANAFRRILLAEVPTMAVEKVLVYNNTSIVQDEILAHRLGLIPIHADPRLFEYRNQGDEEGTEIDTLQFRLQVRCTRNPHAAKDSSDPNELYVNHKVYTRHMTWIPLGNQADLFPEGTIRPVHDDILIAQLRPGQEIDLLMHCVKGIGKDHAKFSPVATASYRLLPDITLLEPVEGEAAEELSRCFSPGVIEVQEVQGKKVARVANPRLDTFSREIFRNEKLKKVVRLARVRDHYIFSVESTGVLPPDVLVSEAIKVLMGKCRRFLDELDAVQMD
# Some of the results follow. The list holds hits alone, and they repeat only in part.
# B1: C5orf56 (peptide)
# chain: MKAVVARTGAAAVSG
# B2: BANCR (peptide)
# chain: PFSGNIFLVTMKGQY
# B3: MIEF-MP (peptide)
# chain: EKGLVFLNGKLGRII
# B4: RP11-432J24.5_2 (peptide)
# chain: ECSPPTFPALCGHLI
# B5: PRR34-AS1 (peptide)
# chain: DLLKMCTSTCSLKIP
# B6: JHDM1D-AS1 (peptide)
# chain: MCRGIQTLENVPPEF
# What was measured:
# Test in all cases: PRISMA enrichment of interactor (LFQ) in peptide spot vs all other peptide spots (log2 fold change); higher = stronger / more specific binding of the interactor to the peptide
# [1] = target: ACOT7, O00154
# Procedure: (§1)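 PRISMA: 15-aa overlapping tiles (offset 8 aa) of 60 microproteins, plus SOS1/GLUT1 control peptides, were spot-synthesized on cellulose membranes in triplicate. Membranes were incubated with benzonase-treated HEK293T lysate, and bound proteins were identified by LC-MS/MS with LFQ. Enrichment is the log2 fold change of each protein in one spot versus all other spots. Only interactors passing the significance cutoff are listed.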
# [2] = target: ADAR, P55265
# Procedure: as §1
# [3] = target: AKAP1, Q92667
# Procedure: as §1
# [4] = target: AP1B1, Q10567
# Procedure: as §1
# [5] = target: C2orf49, Q9BVC5
# Procedure: as §1
# [6] = target: CEP290, O15078
# Procedure: as §1
# [7] = target: CKAP4, Q07065
# Procedure: as §1
# [8] = target: DDX28, Q9NUL7
# Procedure: as §1
# [9] = target: DPY30, Q9C005
# Procedure: as §1
# [10] = target: ENAH, Q8N8S7
# Procedure: as §1
# [11] = target: FBXO45, P0C2W1
# Procedure: as §1
# [12] = target: GPI, P06744
# Procedure: as §1
# [13] = target: HERC5, Q9UII4
# Procedure: as §1
# [14] = target: MCM2, P49736
# Procedure: as §1
# [15] = target: MON2, Q7Z3U7
# Procedure: as §1
# [16] = target: NUP153, P49790
# Procedure: as §1
# [17] = target: PABPC4, Q13310
# Procedure: as §1
# [18] = target: PKP2, Q99959
# Procedure: as §1
# [19] = substrate: PNN, Q9H307
# Procedure: as §1
# [20] = target: PRPF4B
# Procedure: as §1
# [21] = target: PRRC2C, Q9Y520
# Procedure: as §1
# [22] = target: RRP36, Q96EU6
# Procedure: as §1
# [23] = target: SAMM50, Q9Y512
# Procedure: as §1
# [24] = target: SDAD1, Q9NVU7
# Procedure: as §1
# [25] = target: STRBP, Q96SI9
# Procedure: as §1
# [26] = target: TMEM201, Q5SNT2
# Procedure: as §1
# [27] = target: ZC3H18, Q86VM9
# Procedure: as §1
# [28] = target: ACOT13, Q9NPJ3
# Procedure: as §1
# [29] = target: PHGDH, O43175
# Procedure: as §1
# [30] = target: STAG2, Q8N3U4
# Procedure: as §1
# [31] = target: UMPS, P11172
# Procedure: as §1
# [32] = target: ACP1, P24666
# Procedure: as §1
# [33] = target: AKAP17A, Q02040
# Procedure: as §1
# [34] = target: ASNS, P08243
# Procedure: as §1
# [35] = target: DRG2, P55039
# Procedure: as §1
# [36] = target: MPG, P29372
# Procedure: as §1
# [37] = target: MRPL11, Q9Y3B7
# Procedure: as §1
# [38] = target: MRPS5, P82675
# Procedure: as §1
# [39] = target: MTA2, O94776
# Procedure: as §1
# [40] = target: NEK7, Q8TDX7
# Procedure: as §1
# [41] = target: NME4, O00746
# Procedure: as §1
# [42] = target: NPM3, O75607
# Procedure: as §1
# [43] = target: NSUN5, Q96P11
# Procedure: as §1
# [44] = target: PDCL3, Q9H2J4
# Procedure: as §1
# [45] = target: PRDX2, P32119
# Procedure: as §1
# [46] = target: TIMM8B, Q9Y5J9
# Procedure: as §1
# [47] = target: WDR43, Q15061
# Procedure: as §1
# [48] = target: WDR82, Q6UXN9
# Procedure: as §1
# [49] = target: ZC3H14, Q6PJT7
# Procedure: as §1
# [50] = target: ACOT9, Q9Y305
# Procedure: as §1
# [51] = target: CBX3, Q13185
# Procedure: as §1
# [52] = target: CSDE1, O75534
# Procedure: as §1
# [53] = target: DIS3, Q9Y2L1
# Procedure: as §1
# [54] = target: FOCAD, Q5VW36
# Procedure: as §1
# [55] = target: HAT1, O14929
# Procedure: as §1
# [56] = target: PFKM, P08237
# Procedure: as §1
# [57] = substrate: PPIF, P30405
# Procedure: as §1
# [58] = target: PYCR1, P32322
# Procedure: as §1
# [59] = target: RCC2, Q9P258
# Procedure: as §1
# [60] = target: SPCS2, Q15005
# Procedure: as §1
# [61] = target: ZNF317, Q96PQ6
# Procedure: as §1
# [62] = target: CCDC124, Q96CT7
# Procedure: as §1
# [63] = target: CLPTM1, O96005
# Procedure: as §1
# [64] = target: EIF4G2, P78344
# Procedure: as §1
# [65] = target: IDH1, O75874
# Procedure: as §1
# [66] = target: MTOR, P42345
# Procedure: as §1
# [67] = target: MYEF2, Q9P2K5
# Procedure: as §1
# [68] = target: NAA35, Q5VZE5
# Procedure: as §1
# [69] = target: POLR1C, O15160
# Procedure: as §1
# [70] = target: RBM10
# Procedure: as §1
# [71] = target: RBM22, Q9NW64
# Procedure: as §1
# [72] = target: RSL1D1, O76021
# Procedure: as §1
# [73] = target: SEMG2, Q02383
# Procedure: as §1
# [74] = target: SETD7, Q8WTS6
# Procedure: as §1
# [75] = target: SPTLC1, O15269
# Procedure: as §1
# [76] = target: TRIM28, Q13263
# Procedure: as §1
# [77] = target: ZNF326, Q5BKZ1
# Procedure: as §1
# [78] = target: DDX49, Q9Y6V7
# Procedure: as §1
# [79] = target: DNAJA3, Q96EY1
# Procedure: as §1
# [80] = target: HOMER2, Q9NSB8
# Procedure: as §1
# [81] = target: MARK2, Q7KZI7
# Procedure: as §1
# [82] = target: ZC3H15, Q8WU90
# Procedure: as §1
binder,measurement,setting,value
B1,PRISMA enrichment of interactor (log2),[1],5.29
same,PRISMA enrichment of interactor (log2),[2],4.67
same,PRISMA enrichment of interactor (log2),[3],4.95
same,PRISMA enrichment of interactor (log2),[4],6.01
same,PRISMA enrichment of interactor (log2),[5],3.76
same,PRISMA enrichment of interactor (log2),[6],5.28
same,PRISMA enrichment of interactor (log2),[7],6.82
same,PRISMA enrichment of interactor (log2),[8],5.29
same,PRISMA enrichment of interactor (log2),[9],3.98
same,PRISMA enrichment of interactor (log2),[10],4.57
same,PRISMA enrichment of interactor (log2),[11],7.76
same,PRISMA enrichment of interactor (log2),[12],4.59
same,PRISMA enrichment of interactor (log2),[13],5.34
same,PRISMA enrichment of interactor (log2),[14],5.61
same,PRISMA enrichment of interactor (log2),[15],4.01
same,PRISMA enrichment of interactor (log2),[16],4.98
same,PRISMA enrichment of interactor (log2),[17],6.91
same,PRISMA enrichment of interactor (log2),[18],6.43
same,PRISMA enrichment of interactor (log2),[19],5.57
same,PRISMA enrichment of interactor (log2),[20],5.95
same,PRISMA enrichment of interactor (log2),[21],5.24
same,PRISMA enrichment of interactor (log2),[22],5.2
same,PRISMA enrichment of interactor (log2),[23],4.52
same,PRISMA enrichment of interactor (log2),[24],6.1
same,PRISMA enrichment of interactor (log2),[25],4.17
same,PRISMA enrichment of interactor (log2),[26],5.24
same,PRISMA enrichment of interactor (log2),[27],7.43
B2,PRISMA enrichment of interactor (log2),[28],4.21
same,PRISMA enrichment of interactor (log2),[29],3.27
same,PRISMA enrichment of interactor (log2),[30],5.99
same,PRISMA enrichment of interactor (log2),[31],4.93
B3,PRISMA enrichment of interactor (log2),[1],4.07
same,PRISMA enrichment of interactor (log2),[32],6.44
same,PRISMA enrichment of interactor (log2),[33],4.26
same,PRISMA enrichment of interactor (log2),[34],4.98
same,PRISMA enrichment of interactor (log2),[35],3.98
same,PRISMA enrichment of interactor (log2),[36],4.47
same,PRISMA enrichment of interactor (log2),[37],8.66
same,PRISMA enrichment of interactor (log2),[38],6.21
same,PRISMA enrichment of interactor (log2),[39],5.71
same,PRISMA enrichment of interactor (log2),[40],7.51
same,PRISMA enrichment of interactor (log2),[41],5.66
same,PRISMA enrichment of interactor (log2),[42],3.75
same,PRISMA enrichment of interactor (log2),[43],5.07
same,PRISMA enrichment of interactor (log2),[44],7.99
same,PRISMA enrichment of interactor (log2),[45],7
same,PRISMA enrichment of interactor (log2),[46],4.62
same,PRISMA enrichment of interactor (log2),[47],4.26
same,PRISMA enrichment of interactor (log2),[48],8.22
same,PRISMA enrichment of interactor (log2),[49],4.73
B4,PRISMA enrichment of interactor (log2),[50],5.61
same,PRISMA enrichment of interactor (log2),[51],7.79
same,PRISMA enrichment of interactor (log2),[52],5.79
same,PRISMA enrichment of interactor (log2),[53],6.92
same,PRISMA enrichment of interactor (log2),[54],3.77
same,PRISMA enrichment of interactor (log2),[55],5.78
same,PRISMA enrichment of interactor (log2),[56],4.57
same,PRISMA enrichment of interactor (log2),[57],5.61
same,PRISMA enrichment of interactor (log2),[58],4.81
same,PRISMA enrichment of interactor (log2),[59],6.01
same,PRISMA enrichment of interactor (log2),[60],4.84
same,PRISMA enrichment of interactor (log2),[61],3.82
B5,PRISMA enrichment of interactor (log2),[50],5.9
same,PRISMA enrichment of interactor (log2),[62],4.6
same,PRISMA enrichment of interactor (log2),[63],4.3
same,PRISMA enrichment of interactor (log2),[64],8.14
same,PRISMA enrichment of interactor (log2),[65],3.92
same,PRISMA enrichment of interactor (log2),[66],7.21
same,PRISMA enrichment of interactor (log2),[67],3.65
same,PRISMA enrichment of interactor (log2),[68],7.23
same,PRISMA enrichment of interactor (log2),[69],5.63
same,PRISMA enrichment of interactor (log2),[70],4.83
same,PRISMA enrichment of interactor (log2),[71],5.85
same,PRISMA enrichment of interactor (log2),[72],4.86
same,PRISMA enrichment of interactor (log2),[73],5.06
same,PRISMA enrichment of interactor (log2),[74],5.05
same,PRISMA enrichment of interactor (log2),[75],4.08
same,PRISMA enrichment of interactor (log2),[76],7.16
same,PRISMA enrichment of interactor (log2),[77],10.2
B6,PRISMA enrichment of interactor (log2),[1],5.31
same,PRISMA enrichment of interactor (log2),[78],5.86
same,PRISMA enrichment of interactor (log2),[79],5.19
same,PRISMA enrichment of interactor (log2),[11],4.49
same,PRISMA enrichment of interactor (log2),[80],4.17
same,PRISMA enrichment of interactor (log2),[81],8.59
same,PRISMA enrichment of interactor (log2),[82],5.19

# A portion of the results above, as a working copy:
binder,measurement,setting,value
B3,PRISMA enrichment of interactor (log2),[1],4.07
same,PRISMA enrichment of interactor (log2),[32],6.44
same,PRISMA enrichment of interactor (log2),[33],4.26

# A second format for part of the listing above.
binder | measurement | setting | value
B3 | PRISMA enrichment of interactor (log2) | [44] | 7.99
same | PRISMA enrichment of interactor (log2) | [45] | 7
same | PRISMA enrichment of interactor (log2) | [46] | 4.62
